These results are taken from PMC10117899.

Protein sequences, listed by entry. Tags and fused reporters are not part of them.
UniProt Q4JK59: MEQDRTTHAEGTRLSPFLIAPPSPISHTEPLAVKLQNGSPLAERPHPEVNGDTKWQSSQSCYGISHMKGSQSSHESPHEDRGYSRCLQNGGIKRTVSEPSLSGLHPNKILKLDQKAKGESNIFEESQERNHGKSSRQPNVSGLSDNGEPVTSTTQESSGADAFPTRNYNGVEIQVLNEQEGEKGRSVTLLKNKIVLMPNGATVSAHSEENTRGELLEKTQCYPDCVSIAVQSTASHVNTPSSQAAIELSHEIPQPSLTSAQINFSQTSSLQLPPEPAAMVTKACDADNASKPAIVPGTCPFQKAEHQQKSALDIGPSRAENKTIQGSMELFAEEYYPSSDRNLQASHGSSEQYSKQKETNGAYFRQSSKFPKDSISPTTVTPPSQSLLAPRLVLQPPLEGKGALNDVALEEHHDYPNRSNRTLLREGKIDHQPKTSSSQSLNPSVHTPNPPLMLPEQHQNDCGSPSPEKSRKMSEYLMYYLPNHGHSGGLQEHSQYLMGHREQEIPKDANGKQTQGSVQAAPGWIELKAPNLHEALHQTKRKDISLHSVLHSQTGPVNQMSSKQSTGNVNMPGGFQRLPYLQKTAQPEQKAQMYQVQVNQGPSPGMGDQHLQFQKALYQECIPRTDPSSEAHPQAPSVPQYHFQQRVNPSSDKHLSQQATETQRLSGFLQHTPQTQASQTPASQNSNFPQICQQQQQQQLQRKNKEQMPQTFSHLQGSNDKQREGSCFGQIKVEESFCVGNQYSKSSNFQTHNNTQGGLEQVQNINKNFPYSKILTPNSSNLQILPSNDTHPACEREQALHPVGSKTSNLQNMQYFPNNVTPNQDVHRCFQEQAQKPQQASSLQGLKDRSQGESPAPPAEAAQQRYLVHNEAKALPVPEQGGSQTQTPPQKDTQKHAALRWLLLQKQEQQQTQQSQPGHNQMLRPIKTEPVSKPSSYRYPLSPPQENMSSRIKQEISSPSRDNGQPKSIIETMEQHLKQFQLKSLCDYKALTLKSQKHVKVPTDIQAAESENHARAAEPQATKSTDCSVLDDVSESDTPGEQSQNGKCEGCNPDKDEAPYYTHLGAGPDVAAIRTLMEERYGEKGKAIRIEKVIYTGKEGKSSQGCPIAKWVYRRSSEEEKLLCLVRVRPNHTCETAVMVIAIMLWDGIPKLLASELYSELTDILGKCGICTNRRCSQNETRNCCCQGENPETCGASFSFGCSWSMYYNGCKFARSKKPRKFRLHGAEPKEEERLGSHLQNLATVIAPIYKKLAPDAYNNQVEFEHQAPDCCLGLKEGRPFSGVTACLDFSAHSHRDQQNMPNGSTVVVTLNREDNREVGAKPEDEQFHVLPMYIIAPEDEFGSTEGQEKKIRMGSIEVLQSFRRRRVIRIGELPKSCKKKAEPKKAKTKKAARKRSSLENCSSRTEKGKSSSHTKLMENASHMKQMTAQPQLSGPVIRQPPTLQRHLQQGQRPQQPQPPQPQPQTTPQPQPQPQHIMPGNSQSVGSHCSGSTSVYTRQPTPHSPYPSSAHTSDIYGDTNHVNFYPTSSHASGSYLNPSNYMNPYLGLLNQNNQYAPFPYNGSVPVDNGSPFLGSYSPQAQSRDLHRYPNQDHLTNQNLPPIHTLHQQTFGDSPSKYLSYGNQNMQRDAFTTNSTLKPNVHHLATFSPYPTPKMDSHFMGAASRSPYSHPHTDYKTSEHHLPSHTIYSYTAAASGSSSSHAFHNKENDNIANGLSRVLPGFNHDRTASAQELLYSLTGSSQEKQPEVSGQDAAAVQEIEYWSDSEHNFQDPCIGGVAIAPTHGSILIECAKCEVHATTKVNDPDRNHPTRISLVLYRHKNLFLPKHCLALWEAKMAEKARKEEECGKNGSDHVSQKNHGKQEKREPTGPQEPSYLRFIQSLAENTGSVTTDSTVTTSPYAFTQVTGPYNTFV
UniProt Q9EPU0: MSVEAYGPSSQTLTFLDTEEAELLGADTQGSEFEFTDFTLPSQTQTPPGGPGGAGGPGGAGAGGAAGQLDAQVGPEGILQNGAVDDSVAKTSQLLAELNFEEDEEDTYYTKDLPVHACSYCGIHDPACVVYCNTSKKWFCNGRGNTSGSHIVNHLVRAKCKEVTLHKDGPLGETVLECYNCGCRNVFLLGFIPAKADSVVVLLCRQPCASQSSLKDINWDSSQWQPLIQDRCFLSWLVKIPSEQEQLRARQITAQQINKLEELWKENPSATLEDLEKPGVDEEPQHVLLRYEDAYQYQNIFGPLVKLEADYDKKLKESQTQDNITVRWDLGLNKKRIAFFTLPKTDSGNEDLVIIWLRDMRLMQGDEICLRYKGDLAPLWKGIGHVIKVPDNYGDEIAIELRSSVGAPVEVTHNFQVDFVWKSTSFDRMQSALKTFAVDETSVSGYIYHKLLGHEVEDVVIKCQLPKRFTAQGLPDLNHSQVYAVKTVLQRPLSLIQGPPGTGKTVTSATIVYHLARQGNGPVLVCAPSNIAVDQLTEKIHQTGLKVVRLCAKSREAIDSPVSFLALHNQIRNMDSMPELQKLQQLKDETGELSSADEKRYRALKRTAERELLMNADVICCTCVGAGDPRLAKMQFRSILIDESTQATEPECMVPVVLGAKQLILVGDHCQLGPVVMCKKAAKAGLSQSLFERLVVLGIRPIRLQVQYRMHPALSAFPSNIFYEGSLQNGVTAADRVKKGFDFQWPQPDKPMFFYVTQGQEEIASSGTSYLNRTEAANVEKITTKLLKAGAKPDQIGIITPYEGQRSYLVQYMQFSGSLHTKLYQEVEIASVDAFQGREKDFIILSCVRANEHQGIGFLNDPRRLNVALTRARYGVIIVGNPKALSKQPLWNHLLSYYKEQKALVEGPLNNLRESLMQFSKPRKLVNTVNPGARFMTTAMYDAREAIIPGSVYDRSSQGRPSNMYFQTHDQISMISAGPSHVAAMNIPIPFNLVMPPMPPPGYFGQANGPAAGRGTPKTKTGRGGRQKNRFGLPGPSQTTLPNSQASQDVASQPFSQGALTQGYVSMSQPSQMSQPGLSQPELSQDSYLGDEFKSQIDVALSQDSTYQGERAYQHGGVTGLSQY

Assay [1] deals with endogenous Tet2 (mouse (endogenous in N2a)) (UniProt Q4JK59). Briefly: co-IP; endogenous IP: N2a cells lysed in RIPA buffer (50 mM Tris pH 8.0, 0.1% SDS, 150 mM NaCl, 1 mM EDTA, 1 mM EGTA, 0.5% deoxycholate, 1% Triton X-100); anti-Tet2 or IgG antibody, agarose beads, 4°C overnight; blot with anti-Upf1.
The next assay addresses Flag-Tet2 (mouse) (UniProt Q4JK59). As to the kind of experiment: co-IP; exogenous IP: HEK293T co-transfected with HA-Upf1 and Flag-Tet2 (or vector) for 48 h; lysis buffer 150 mM NaCl, 25 mM tris-HCl pH 7.4, 10% glycerol, 0.5% Triton X-100, 2 mM MgCl2; Flag beads, 4°C overnight; blot with anti-HA.

These are yes or no findings as the source states them, for the method shown. In cells and extracts the contact can be indirect. Some entries that bind do so weakly or less than the wild type.

Consider “endogenous Upf1 (from UniProt Q9EPU0 1-1124) (enzyme)”, for which, in assay [1], the binding result is “binds”.
As for “HA-Upf1 (from UniProt Q9EPU0 1-1124) (enzyme)”, the binding entry in the assay with Flag-Tet2 (mouse) was “binds”.
